Source: doi:10.1101/2024.09.13.612878
No constants are given. Whether binding was seen depends on the method and setting. In cells and extracts the contact can be indirect. These calls come from enrichment with a bait or labelling near it, and not all partners need be listed.

Amino acid sequences for entries named in this document (tags omitted). A change or cut given only in a name is not applied to a line headed by its entry.
UniProt P31057: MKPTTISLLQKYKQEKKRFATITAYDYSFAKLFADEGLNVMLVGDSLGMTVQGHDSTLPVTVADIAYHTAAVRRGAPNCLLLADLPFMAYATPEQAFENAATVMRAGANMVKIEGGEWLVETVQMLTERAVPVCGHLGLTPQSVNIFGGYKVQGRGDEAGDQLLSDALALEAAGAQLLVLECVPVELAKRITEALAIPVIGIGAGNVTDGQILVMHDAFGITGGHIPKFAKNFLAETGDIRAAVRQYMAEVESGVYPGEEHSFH

Molecular target: 1M3U self-assembling mutant (D157L/E158L/D161L) fused to YFP Venus (UniProt P31057)
Assay: affinity purification with mass spectrometry

binding: binds
B1: ASP1, cytosolic L-asparaginase (protein, UniProt P38986 1-381)
chain: MKSDSVEITTICPDVENSQFVVQSNCPETIPEILKSQNAAVNGSGIACQQRSLPRIKILGTGGTIASKAIDSSQTAGYHVDLTIQDLLDAIPDISKVCDIEYEQLCNVDSKDINEDILYKIYKGVSESLQAFDGIVITHGTDTLSETAFFIESTIDAGDVPIVFVGSMRPSTSVSADGPMNLYQAICIASNPKSRGRGVLVSLNDQISSGYYITKTNANSLDSFNVRQGYLGNFVNNEIHYYYPPVKPQGCHKFKLRVDGKHFKLPEVCILYAHQAFPPAIVNLVADKYDGIVLATMGAGSLPEEVNETCMKLSLPIVYSKRSMDGMVPIANVPKKGSKEDNLIASGYLSPEKSRILLQLCLAGNYTLEEIKHVFTGVYGG
